From the supplement of paper PMC12282887
Values are raw readings; no control value is given beside them.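 For antimicrobials the highest concentration approximated the MIC. Most other compounds topped out at 500 µM, and known inducer-like compounds reached up to 1 mM. Inocula for deletion strains were tenfold smaller, and any well growing below 10% of the overall median was considered non-growing.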

Test system: Escherichia coli BW25113
Assay: growth (OD600 area under curve, 8 h) (OD600 x h); higher = more growth
Procedure: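 E. coli BW25113 reporter strains (wild type, ΔmarA, ΔsoxS, Δrob, each carrying one of 8 lux reporter plasmids) were grown in 40 µl LB in 384-well plates at 37°C, 800 rpm, with each compound at 4 two-fold concentrations, in biological duplicates. Growth is the baseline-corrected OD600 area under the curve over 8 h (0-8 h WT, 1-9 h deletion strains).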

CC(=O)Oc1ccccc1C(=O)O [Acetylsalicylic acid]
growth
Conditions | reporter plasmid: EVC | reporter plasmid: acrABp | reporter plasmid: marRABp | reporter plasmid: micFp | reporter plasmid: ompFp | reporter plasmid: robp | reporter plasmid: soxSp | reporter plasmid: tolCp
22.5 µg/ml, genetic background: wild type | 2.59 | 3.05 | 3.17 | 2.78 | 2.66 | 3.019 | 2.55 | 2.757
22.5 µg/ml, genetic background: ΔmarA | 2.84 | 3.98 | 3.26 | 3.04 | 3.11 | 3.39 | 2.44 | 2.65
22.5 µg/ml, genetic background: Δrob | 2.76 | 2.93 | 3.06 | 2.63 | 2.53 | 2.65 | 2.33 | 2.6243
22.5 µg/ml, genetic background: ΔsoxS | 2.89 | 3 | 3.04 | 2.49 | 3.15 | 3.11 | 2.87 | 2.8
45 µg/ml, genetic background: wild type | 2.55 | 3.05 | 3.14 | 2.78 | 2.68 | 2.98 | 2.59 | 2.77
45 µg/ml, genetic background: ΔmarA | 3.01 | 4.2 | 3.55 | 2.9 | 3.47 | 3.75 | 2.37 | 2.68
45 µg/ml, genetic background: Δrob | 2.81 | 2.61 | 3.05 | 2.778 | 2.63 | 2.61 | 2.38 | 2.58
45 µg/ml, genetic background: ΔsoxS | 2.802 | 2.9 | 3.11 | 2.61 | 3.11 | 3.03 | 2.8 | 2.91
90.1 µg/ml, genetic background: wild type | 2.77 | 3.27 | 3.22 | 2.66 | 2.88 | 3.16 | 2.47 | 2.7
90.1 µg/ml, genetic background: ΔmarA | 3.17 | 4.47 | 4.1 | 3.17 | 3.79 | 4.12 | 2.73 | 3.05
90.1 µg/ml, genetic background: Δrob | 2.97 | 3.27 | 3.56 | 2.73 | 3.05 | 2.82 | 2.36 | 2.55
90.1 µg/ml, genetic background: ΔsoxS | 2.981 | 3.2 | 3.31 | 2.67 | 3.42 | 3.65 | 3.07 | 2.84
180.2 µg/ml, genetic background: wild type | 2.42 | 3.06 | 2.96 | 2.46 | 2.51 | 2.85 | 2.31 | 2.57
180.2 µg/ml, genetic background: ΔmarA | 3.02 | 3.93 | 3.56 | 2.71 | 3.27 | 3.97 | 2.39 | 2.69
180.2 µg/ml, genetic background: Δrob | 2.56 | 2.82 | 3.1 | 2.38 | 2.58 | 2.4 | 2 | 2.5
180.2 µg/ml, genetic background: ΔsoxS | 2.42 | 2.55 | 2.9 | 1.9 | 2.54 | 3.07 | 2.51 | 2.36
